Paper PMC8380248
These are yes or no findings as the source states them, for the method shown. Binding seen in cells or lysates may run through a third protein. Some entries that bind do so weakly or less than the wild type.

Biological target: Sp1 transcription factor (human (endogenous in SW480 and LOVO)), P08047
Experiment: co-IP; lysates of CRC cells (IP lysis buffer) incubated overnight at 4 °C with SP1 or β-catenin antibody, IgG as control; beads; western blot; control cells (circ_0026628 not silenced)
Conditions: remark: other sources report otherwise

binding: binds
B1: β-catenin, P35222 1-781 (protein)
chain: MATQADLMELDMAMEPDRKAAVSHWQQQSYLDSGIHSGATTTAPSLSGKGNPEEEDVDTSQVLYEWEQGFSQSFTQEQVADIDGQYAMTRAQRVRAAMFPETLDEGMQIPSTQFDAAHPTNVQRLAEPSQMLKHAVVNLINYQDDAELATRAIPELTKLLNDEDQVVVNKAAVMVHQLSKKEASRHAIMRSPQMVSAIVRTMQNTNDVETARCTAGTLHNLSHHREGLLAIFKSGGIPALVKMLGSPVDSVLFYAITTLHNLLLHQEGAKMAVRLAGGLQKMVALLNKTNVKFLAITTDCLQILAYGNQESKLIILASGGPQALVNIMRTYTYEKLLWTTSRVLKVLSVCSSNKPAIVEAGGMQALGLHLTDPSQRLVQNCLWTLRNLSDAATKQEGMEGLLGTLVQLLGSDDINVVTCAAGILSNLTCNNYKNKMMVCQVGGIEALVRTVLRAGDREDITEPAICALRHLTSRHQEAEMAQNAVRLHYGLPVVVKLLHPPSHWPLIKATVGLIRNLALCPANHAPLREQGAIPRLVQLLVRAHQDTQRRTSMGGTQQQFVEGVRMEEIVEGCTGALHILARDVHNRIVIRGLNTIPLFVQLLYSPIENIQRVAAGVLCELAQDKEAAEAIEAEGATAPLTELLHSRNEGVATYAAAVLFRMSEDKPQDYKKRLSVELTSSLFRTEPMAWNETADLGLDIGAQGEPLGYRQDDPSYRSFHSGGYGQDALGMDPMMEHEMGGHHPGADYPVDGLPDLGHAQDLMDGLPPGDSNQLAWFDTDL
